Assay results published in US20130272963A1, “Cholesterol Efflux Assay Probe Formulations, Methods of Making and Using” (THE OHIO STATE UNIVERSITY, priority 2012, published 2013).
For at least one compound, name, drawing or mass did not settle the structure.

How the values were obtained:
[1] = Drug loading of CHEAP formulation
[2] = RSG release from RSG-loaded CHEAP at cell culture conditions, LC-MS; format: physicochemical; details: cell culture media, 37° C., 72 h

CN(CCOc1ccc(CC2SC(=O)NC2=O)cc1)c1ccccn1 (stereo not drawn) [RSG, Rosiglitazone]
binding affinity towards the CHEAP formulation ([1]; hydrophobic model drugs loaded into CHEAP): high binding affinity | drug incorporated by CHEAP ([1]; loading capacity): ~0.6 mg of the drug per 1 mg of particles | RSG released [2]: very little
